Compound in the test: Nc1nc2c(ncn2[C@@H]2O[C@H](COP(=O)(O)OP(=O)(O)OP(=O)(O)O)[C@@H](O)[C@H]2O)c(=O)[nH]1 [guanosine triphosphate]
Briefly: NP40-soluble protein abundance relative to vehicle (solubility fold change) (ratio); higher = more soluble protein in presence of GTP. In short, it runs like this:
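In three independent experiments, Jurkat crude lysate made by Dounce homogenisation was treated for 10 min at room temperature and then 3 min at 37 °C with eight concentrations ranging from 0.1 to 10 mM. It was then solubilised with 0.8% NP40 plus benzonase for 60 min at 4 °C and ultracentrifuged. The supernatant was TMT-labelled for LC-MS/MS, and each value is the fold change against the detergent-processed vehicle for the same replicate, using vsn-normalised intensities.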

By UniProt entry, the sequences of proteins in these tests, tags left out. Where a name states a change or a piece, a line headed by the entry shows the natural chain unless it says otherwise.
UniProt P52888, whole entry: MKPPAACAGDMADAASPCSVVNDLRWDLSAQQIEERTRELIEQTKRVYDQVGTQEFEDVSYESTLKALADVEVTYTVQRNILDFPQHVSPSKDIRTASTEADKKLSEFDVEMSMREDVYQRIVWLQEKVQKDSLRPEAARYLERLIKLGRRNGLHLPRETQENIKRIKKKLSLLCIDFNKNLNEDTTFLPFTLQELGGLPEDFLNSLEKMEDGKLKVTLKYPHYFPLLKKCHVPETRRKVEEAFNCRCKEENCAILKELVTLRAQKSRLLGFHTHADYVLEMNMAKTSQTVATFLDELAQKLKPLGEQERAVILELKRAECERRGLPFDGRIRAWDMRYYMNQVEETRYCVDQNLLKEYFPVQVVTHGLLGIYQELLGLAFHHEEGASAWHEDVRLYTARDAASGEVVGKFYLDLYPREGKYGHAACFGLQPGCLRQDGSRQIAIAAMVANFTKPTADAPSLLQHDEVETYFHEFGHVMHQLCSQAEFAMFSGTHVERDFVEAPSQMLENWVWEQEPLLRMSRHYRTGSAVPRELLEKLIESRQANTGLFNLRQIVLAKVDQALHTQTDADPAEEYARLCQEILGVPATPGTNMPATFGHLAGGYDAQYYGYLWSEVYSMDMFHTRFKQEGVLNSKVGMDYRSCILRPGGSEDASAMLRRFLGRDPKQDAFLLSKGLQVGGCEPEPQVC
UniProt P53597: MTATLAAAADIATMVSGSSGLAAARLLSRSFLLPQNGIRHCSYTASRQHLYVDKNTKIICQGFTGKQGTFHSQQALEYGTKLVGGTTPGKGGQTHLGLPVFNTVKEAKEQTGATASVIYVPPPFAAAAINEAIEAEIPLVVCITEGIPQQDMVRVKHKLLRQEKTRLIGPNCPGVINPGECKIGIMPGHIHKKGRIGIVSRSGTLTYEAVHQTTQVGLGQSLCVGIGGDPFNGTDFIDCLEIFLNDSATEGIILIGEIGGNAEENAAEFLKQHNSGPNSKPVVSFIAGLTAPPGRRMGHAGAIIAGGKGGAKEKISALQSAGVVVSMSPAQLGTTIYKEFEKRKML
UniProt P62258: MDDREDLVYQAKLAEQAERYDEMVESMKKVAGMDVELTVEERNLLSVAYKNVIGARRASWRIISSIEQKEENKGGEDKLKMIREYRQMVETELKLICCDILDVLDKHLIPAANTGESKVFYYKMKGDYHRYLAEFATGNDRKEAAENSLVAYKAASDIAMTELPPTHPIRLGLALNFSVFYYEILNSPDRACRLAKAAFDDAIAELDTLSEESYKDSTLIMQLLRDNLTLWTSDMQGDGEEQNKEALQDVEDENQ
UniProt P52756, whole entry: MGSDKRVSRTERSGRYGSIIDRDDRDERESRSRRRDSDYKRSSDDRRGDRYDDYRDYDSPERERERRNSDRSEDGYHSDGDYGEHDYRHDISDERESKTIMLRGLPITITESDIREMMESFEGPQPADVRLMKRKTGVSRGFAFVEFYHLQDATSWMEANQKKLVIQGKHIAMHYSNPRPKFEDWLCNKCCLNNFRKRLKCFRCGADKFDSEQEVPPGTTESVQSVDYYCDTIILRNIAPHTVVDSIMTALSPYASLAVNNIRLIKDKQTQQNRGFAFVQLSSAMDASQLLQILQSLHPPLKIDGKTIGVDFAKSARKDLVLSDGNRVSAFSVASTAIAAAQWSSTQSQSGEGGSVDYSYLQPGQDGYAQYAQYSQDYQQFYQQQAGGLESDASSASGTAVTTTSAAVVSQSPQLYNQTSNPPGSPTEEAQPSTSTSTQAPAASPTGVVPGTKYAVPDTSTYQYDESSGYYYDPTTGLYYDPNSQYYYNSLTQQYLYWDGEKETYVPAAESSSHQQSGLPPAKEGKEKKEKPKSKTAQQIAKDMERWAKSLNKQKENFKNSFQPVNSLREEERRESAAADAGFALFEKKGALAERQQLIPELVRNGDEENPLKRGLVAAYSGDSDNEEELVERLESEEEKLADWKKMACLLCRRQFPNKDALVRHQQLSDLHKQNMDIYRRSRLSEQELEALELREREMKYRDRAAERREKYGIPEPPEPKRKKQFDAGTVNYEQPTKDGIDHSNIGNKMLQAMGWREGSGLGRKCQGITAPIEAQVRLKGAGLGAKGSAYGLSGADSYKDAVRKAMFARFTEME
UniProt P78344: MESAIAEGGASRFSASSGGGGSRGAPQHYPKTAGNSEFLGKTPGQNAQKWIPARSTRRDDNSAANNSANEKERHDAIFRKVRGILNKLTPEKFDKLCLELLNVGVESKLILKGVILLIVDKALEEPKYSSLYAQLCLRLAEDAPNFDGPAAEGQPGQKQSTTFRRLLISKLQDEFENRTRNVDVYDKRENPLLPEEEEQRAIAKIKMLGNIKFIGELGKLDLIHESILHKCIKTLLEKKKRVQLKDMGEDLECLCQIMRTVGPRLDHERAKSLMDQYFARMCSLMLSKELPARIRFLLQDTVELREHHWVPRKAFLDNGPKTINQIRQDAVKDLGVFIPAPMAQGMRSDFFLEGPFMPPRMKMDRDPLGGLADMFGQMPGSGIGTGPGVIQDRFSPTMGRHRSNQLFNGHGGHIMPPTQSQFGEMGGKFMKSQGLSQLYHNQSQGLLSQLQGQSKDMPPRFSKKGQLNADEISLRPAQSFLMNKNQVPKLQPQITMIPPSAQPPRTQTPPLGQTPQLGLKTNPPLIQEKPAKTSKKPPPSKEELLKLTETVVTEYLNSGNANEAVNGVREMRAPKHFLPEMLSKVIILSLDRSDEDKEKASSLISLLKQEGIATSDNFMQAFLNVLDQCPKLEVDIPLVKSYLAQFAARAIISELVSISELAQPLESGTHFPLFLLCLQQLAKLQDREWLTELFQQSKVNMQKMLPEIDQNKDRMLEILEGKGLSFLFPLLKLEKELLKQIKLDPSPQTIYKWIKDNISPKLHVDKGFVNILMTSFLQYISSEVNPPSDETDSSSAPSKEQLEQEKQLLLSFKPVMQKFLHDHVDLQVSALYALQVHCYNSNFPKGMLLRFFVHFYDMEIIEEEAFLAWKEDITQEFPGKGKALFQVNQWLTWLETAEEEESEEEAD
UniProt P53384: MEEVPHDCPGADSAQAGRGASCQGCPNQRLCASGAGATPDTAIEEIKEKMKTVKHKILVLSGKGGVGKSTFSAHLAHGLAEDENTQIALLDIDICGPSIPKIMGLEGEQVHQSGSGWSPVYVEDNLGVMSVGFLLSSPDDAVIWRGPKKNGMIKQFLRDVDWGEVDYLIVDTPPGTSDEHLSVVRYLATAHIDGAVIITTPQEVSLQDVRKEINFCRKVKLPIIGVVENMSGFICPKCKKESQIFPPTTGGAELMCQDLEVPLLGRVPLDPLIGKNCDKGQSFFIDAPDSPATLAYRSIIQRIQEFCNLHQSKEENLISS
UniProt Q00534, whole entry: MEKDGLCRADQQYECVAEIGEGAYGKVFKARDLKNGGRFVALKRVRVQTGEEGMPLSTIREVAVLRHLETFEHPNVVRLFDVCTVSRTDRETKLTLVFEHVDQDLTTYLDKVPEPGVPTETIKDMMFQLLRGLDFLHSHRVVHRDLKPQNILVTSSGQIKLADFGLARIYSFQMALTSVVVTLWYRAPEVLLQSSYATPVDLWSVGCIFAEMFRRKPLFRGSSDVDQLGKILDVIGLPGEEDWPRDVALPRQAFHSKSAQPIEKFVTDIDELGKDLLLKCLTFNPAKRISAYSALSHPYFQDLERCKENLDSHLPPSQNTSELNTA
UniProt P53701: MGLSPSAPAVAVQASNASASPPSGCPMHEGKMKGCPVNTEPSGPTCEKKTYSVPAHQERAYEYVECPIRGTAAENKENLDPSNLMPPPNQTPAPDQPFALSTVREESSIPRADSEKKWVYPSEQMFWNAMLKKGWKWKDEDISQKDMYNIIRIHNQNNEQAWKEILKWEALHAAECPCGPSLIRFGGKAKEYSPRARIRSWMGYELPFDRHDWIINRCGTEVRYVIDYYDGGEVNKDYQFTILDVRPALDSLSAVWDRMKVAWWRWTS
UniProt P61018: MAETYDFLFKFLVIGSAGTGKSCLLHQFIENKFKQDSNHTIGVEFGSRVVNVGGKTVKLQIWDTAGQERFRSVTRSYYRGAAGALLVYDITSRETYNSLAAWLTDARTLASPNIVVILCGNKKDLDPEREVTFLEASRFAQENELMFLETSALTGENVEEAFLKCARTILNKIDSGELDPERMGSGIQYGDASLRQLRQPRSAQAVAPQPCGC
UniProt P55072, whole entry, looked up: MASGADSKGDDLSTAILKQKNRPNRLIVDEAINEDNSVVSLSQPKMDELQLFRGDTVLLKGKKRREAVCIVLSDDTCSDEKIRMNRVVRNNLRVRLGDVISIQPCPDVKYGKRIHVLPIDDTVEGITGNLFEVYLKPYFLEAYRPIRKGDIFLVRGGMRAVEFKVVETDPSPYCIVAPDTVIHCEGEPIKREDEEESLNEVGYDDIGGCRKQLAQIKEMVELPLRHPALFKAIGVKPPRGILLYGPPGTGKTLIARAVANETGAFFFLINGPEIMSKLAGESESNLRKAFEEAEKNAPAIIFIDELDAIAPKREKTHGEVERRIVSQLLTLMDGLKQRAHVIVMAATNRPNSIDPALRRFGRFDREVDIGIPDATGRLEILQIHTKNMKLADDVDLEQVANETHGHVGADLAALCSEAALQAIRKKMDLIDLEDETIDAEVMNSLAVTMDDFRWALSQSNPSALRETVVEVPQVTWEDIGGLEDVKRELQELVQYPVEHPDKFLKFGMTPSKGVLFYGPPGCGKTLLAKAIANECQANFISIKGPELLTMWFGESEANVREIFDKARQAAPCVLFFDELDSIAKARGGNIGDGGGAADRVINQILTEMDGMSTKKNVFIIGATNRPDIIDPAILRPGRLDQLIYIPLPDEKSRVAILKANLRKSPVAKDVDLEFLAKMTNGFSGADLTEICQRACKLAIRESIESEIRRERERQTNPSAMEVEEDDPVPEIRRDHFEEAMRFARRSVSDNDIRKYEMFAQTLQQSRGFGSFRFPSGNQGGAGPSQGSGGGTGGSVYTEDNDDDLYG
UniProt P51790: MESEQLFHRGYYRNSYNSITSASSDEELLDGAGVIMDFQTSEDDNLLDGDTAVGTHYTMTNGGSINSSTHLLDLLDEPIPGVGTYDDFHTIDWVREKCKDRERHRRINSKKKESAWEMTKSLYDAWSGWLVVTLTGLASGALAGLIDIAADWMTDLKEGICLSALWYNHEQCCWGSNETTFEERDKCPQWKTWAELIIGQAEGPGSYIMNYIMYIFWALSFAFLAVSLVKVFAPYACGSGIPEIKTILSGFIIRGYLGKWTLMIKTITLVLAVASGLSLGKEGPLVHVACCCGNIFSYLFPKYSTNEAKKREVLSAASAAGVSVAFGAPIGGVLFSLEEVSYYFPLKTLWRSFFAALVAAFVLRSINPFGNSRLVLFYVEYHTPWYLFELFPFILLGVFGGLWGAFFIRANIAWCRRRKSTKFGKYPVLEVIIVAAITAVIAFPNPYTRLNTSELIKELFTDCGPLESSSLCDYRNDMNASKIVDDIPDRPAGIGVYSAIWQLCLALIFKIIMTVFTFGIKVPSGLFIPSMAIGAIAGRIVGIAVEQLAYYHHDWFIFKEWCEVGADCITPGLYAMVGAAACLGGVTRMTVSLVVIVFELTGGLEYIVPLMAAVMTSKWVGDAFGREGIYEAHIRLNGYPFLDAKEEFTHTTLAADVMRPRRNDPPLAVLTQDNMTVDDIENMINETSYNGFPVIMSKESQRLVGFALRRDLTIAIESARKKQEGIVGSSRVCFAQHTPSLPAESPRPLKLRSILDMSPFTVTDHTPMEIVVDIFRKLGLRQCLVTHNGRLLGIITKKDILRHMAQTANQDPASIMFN

± gives the standard deviation of the averaged measurements. The list shows a part of the results.

On to THOP1 (UniProt P52888), for which the NP40-soluble protein abundance is, setting by setting: (concentration: 0.1mM) 1.02 ± 0.053; (concentration: 0.5mM) 1.02 ± 0.045; (concentration: 1mM) 0.923 ± 0.033; (concentration: 2mM) 0.912 ± 0.058; (concentration: 4mM) 0.898 ± 0.041; (concentration: 6mM) 0.889 ± 0.033. Further, the NP40-soluble protein abundance is, setting by setting: (concentration: 8mM) 0.854 ± 0.023; (concentration: 10mM) 0.842 ± 0.083.
With SUCLG1 (UniProt P53597), the NP40-soluble protein abundance reads like this: (concentration: 0.1mM) 0.958 ± 0.08; (concentration: 0.5mM) 0.942 ± 0.063; (concentration: 1mM) 0.956 ± 0.062; (concentration: 2mM) 0.921 ± 0.071; (concentration: 4mM) 0.936 ± 0.064; (concentration: 6mM) 0.915 ± 0.044. The NP40-soluble protein abundance (concentration: 8mM) amounted to 0.922 ± 0.083 and the NP40-soluble protein abundance (concentration: 10mM) is 0.906 ± 0.065.
As to MRPS10 (UniProt P82664), the NP40-soluble protein abundance (concentration: 0.1mM) is 1.04 ± 0.12; the NP40-soluble protein abundance (concentration: 0.5mM) worked out at 1.01 ± 0.066; the NP40-soluble protein abundance (concentration: 1mM) was 1.26 ± 0.31; the NP40-soluble protein abundance (concentration: 2mM) was determined as 1.38 ± 0.34; the NP40-soluble protein abundance (concentration: 4mM) is 1.4 ± 0.32; the NP40-soluble protein abundance (concentration: 6mM) worked out at 1.3 ± 0.32. In addition, the NP40-soluble protein abundance reads like this: (concentration: 8mM) 1.29 ± 0.28; (concentration: 10mM) 1.25 ± 0.28.
As to UniProt P62258, the NP40-soluble protein abundance (concentration: 0.1mM) is 0.888 ± 0.069; the NP40-soluble protein abundance (concentration: 0.5mM) came to 0.832 ± 0.047; the NP40-soluble protein abundance (concentration: 1mM) is 0.989 ± 0.066; the NP40-soluble protein abundance (concentration: 2mM) turned out to be 0.943 ± 0.059; the NP40-soluble protein abundance (concentration: 4mM) stood at 0.933 ± 0.075; the NP40-soluble protein abundance (concentration: 6mM) amounted to 0.936 ± 0.066. Also, the NP40-soluble protein abundance is, setting by setting: (concentration: 8mM) 0.884 ± 0.12; (concentration: 10mM) 0.917 ± 0.057.
For the target RBM5 (UniProt P52756), the NP40-soluble protein abundance is, setting by setting: (concentration: 0.1mM) 0.978 ± 0.035; (concentration: 0.5mM) 1.02 ± 0.073; (concentration: 1mM) 1.1 ± 0.11; (concentration: 2mM) 1.13 ± 0.1; (concentration: 4mM) 1.22 ± 0.16; (concentration: 6mM) 1.19 ± 0.18. Also, the NP40-soluble protein abundance worked out at 1.23 ± 0.16 (concentration: 8mM) and 1.26 ± 0.14 (concentration: 10mM).
For the target MRPS5 (UniProt P82675), the NP40-soluble protein abundance runs as follows: (concentration: 0.1mM) 1.09 ± 0.075; (concentration: 0.5mM) 1.16 ± 0.17; (concentration: 1mM) 1.23 ± 0.24; (concentration: 2mM) 1.32 ± 0.32; (concentration: 4mM) 1.36 ± 0.34; (concentration: 6mM) 1.28 ± 0.31. For the same target, the NP40-soluble protein abundance reads like this: (concentration: 8mM) 1.23 ± 0.3; (concentration: 10mM) 1.18 ± 0.29.
Consider UniProt P78344 and related entries, for which the NP40-soluble protein abundance (concentration: 0.1mM) turned out to be 0.948 ± 0.036; the NP40-soluble protein abundance (concentration: 0.5mM) was determined as 0.96 ± 0.053; the NP40-soluble protein abundance (concentration: 1mM) amounted to 0.963 ± 0.015; the NP40-soluble protein abundance (concentration: 2mM) was 0.98 ± 0.051; the NP40-soluble protein abundance (concentration: 4mM) came out at 1.01 ± 0.033; the NP40-soluble protein abundance (concentration: 6mM) turned out to be 1.05 ± 0.046. Further, the NP40-soluble protein abundance runs as follows: (concentration: 8mM) 1.05 ± 0.035; (concentration: 10mM) 1.09 ± 0.063.
Consider UniProt P53384 and related entries, for which the NP40-soluble protein abundance came to 0.935 ± 0.081 (concentration: 0.1mM); 0.92 ± 0.081 (concentration: 0.5mM); 0.864 ± 0.032 (concentration: 1mM); 0.881 ± 0.052 (concentration: 2mM); 0.842 ± 0.064 (concentration: 4mM); 0.877 ± 0.065 (concentration: 6mM). The NP40-soluble protein abundance is, setting by setting: (concentration: 8mM) 0.856 ± 0.05; (concentration: 10mM) 0.864 ± 0.074.
CAPZA1 (UniProt P52907): the NP40-soluble protein abundance by setting is: (concentration: 0.1mM) 0.915 ± 0.084; (concentration: 0.5mM) 0.955 ± 0.091; (concentration: 1mM) 0.912 ± 0.054; (concentration: 2mM) 0.92 ± 0.07; (concentration: 4mM) 0.916 ± 0.088; (concentration: 6mM) 0.924 ± 0.094. Besides, the NP40-soluble protein abundance runs as follows: (concentration: 8mM) 0.912 ± 0.077; (concentration: 10mM) 0.904 ± 0.093.
Take UniProt P63244 and related entries: the NP40-soluble protein abundance was found to be 0.997 ± 0.049 (concentration: 0.1mM); 1.04 ± 0.13 (concentration: 0.5mM); 0.936 ± 0.15 (concentration: 1mM); 0.922 ± 0.18 (concentration: 2mM); 0.823 ± 0.17 (concentration: 4mM); 0.798 ± 0.17 (concentration: 6mM). The NP40-soluble protein abundance turned out to be 0.708 ± 0.096 (concentration: 8mM) and 0.737 ± 0.14 (concentration: 10mM).
As to CDK6 (UniProt Q00534), the NP40-soluble protein abundance runs as follows: (concentration: 0.1mM) 0.972 ± 0.05; (concentration: 0.5mM) 0.977 ± 0.017; (concentration: 1mM) 0.941 ± 0.056; (concentration: 2mM) 0.895 ± 0.032; (concentration: 4mM) 0.864 ± 0.056; (concentration: 6mM) 0.909 ± 0.06. For the same target, the NP40-soluble protein abundance by setting is: (concentration: 8mM) 0.89 ± 0.06; (concentration: 10mM) 0.854 ± 0.039.
Regarding HCCS (UniProt P53701), the NP40-soluble protein abundance was 1.02 ± 0.096 (concentration: 0.1mM); 1.04 ± 0.074 (concentration: 0.5mM); 0.979 ± 0.12 (concentration: 1mM); 0.947 ± 0.078 (concentration: 2mM); 0.894 ± 0.11 (concentration: 4mM); 0.907 ± 0.11 (concentration: 6mM). Further, the NP40-soluble protein abundance came out at 0.897 ± 0.12 (concentration: 8mM) and 0.877 ± 0.094 (concentration: 10mM).
In the case of UniProt P51157 and related entries, the NP40-soluble protein abundance reads like this: (concentration: 0.1mM) 0.975 ± 0.039; (concentration: 0.5mM) 0.981 ± 0.076; (concentration: 1mM) 0.93 ± 0.036; (concentration: 2mM) 0.966 ± 0.01; (concentration: 4mM) 0.934 ± 0.014; (concentration: 6mM) 0.934 ± 0.034. Besides, the NP40-soluble protein abundance (concentration: 8mM) is 0.951 ± 0.017 and the NP40-soluble protein abundance (concentration: 10mM) is 0.894 ± 0.018.
On to UniProt P62899, for which the NP40-soluble protein abundance is, setting by setting: (concentration: 0.1mM) 0.879 ± 0.036; (concentration: 0.5mM) 0.945 ± 0.089; (concentration: 1mM) 0.962 ± 0.12; (concentration: 2mM) 0.932 ± 0.051; (concentration: 4mM) 0.939 ± 0.14; (concentration: 6mM) 0.981 ± 0.18. Moreover, the NP40-soluble protein abundance by setting is: (concentration: 8mM) 0.821 ± 0.046; (concentration: 10mM) 1.21 ± 0.28.
Take UniProt P61018 and related entries: the NP40-soluble protein abundance (concentration: 0.1mM) was determined as 1.07 ± 0.098; the NP40-soluble protein abundance (concentration: 0.5mM) was determined as 1.07 ± 0.043; the NP40-soluble protein abundance (concentration: 1mM) was found to be 0.976 ± 0.058; the NP40-soluble protein abundance (concentration: 2mM) came to 0.975 ± 0.063; the NP40-soluble protein abundance (concentration: 4mM) stood at 0.942 ± 0.058; the NP40-soluble protein abundance (concentration: 6mM) is 0.951 ± 0.054. The NP40-soluble protein abundance runs as follows: (concentration: 8mM) 0.889 ± 0.074; (concentration: 10mM) 0.881 ± 0.1.
For UniProt P55072, the NP40-soluble protein abundance (concentration: 0.1mM) came out at 0.982 ± 0.03; the NP40-soluble protein abundance (concentration: 0.5mM) is 1.05 ± 0.064; the NP40-soluble protein abundance (concentration: 1mM) came out at 0.999 ± 0.073; the NP40-soluble protein abundance (concentration: 2mM) amounted to 1.02 ± 0.12; the NP40-soluble protein abundance (concentration: 4mM) was 1.03 ± 0.11; the NP40-soluble protein abundance (concentration: 6mM) amounted to 1.03 ± 0.14. Also, the NP40-soluble protein abundance by setting is: (concentration: 8mM) 1 ± 0.1; (concentration: 10mM) 1 ± 0.11.
Turning to UniProt P51790 and related entries, the NP40-soluble protein abundance (concentration: 0.1mM) came out at 1.06 ± 0.039; the NP40-soluble protein abundance (concentration: 0.5mM) is 0.966 ± 0.056; the NP40-soluble protein abundance (concentration: 1mM) came out at 1 ± 0.038; the NP40-soluble protein abundance (concentration: 2mM) worked out at 0.977 ± 0.028; the NP40-soluble protein abundance (concentration: 4mM) was 1.04 ± 0.051; the NP40-soluble protein abundance (concentration: 6mM) worked out at 0.9855 ± 0.0084. The NP40-soluble protein abundance is 1.002 ± 0.0032 (concentration: 8mM) and 0.953 ± 0.037 (concentration: 10mM).

These data come from the supplement of paper PMC6411743.
